Data taken from PubChem BioAssay AID1159506, deposited by NCATS (2015).

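Luminescence from an EWS-FLI1 target-promoter (NR0B1) reporter, set against a CMV-promoter reporter, two days after silencing single genes in TC32 Ewing sarcoma cells.
Each siRNA was applied at 20 nM.
A z-score of the log NR0B1-over-CMV signal, less the median of siRNAs with the same seed; more negative means a stronger specific loss of the NR0B1 reporter.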

This is part of the screen; most of the strongest results are not listed here.
Sequences are the guide (antisense) strand, without overhang.

| strand | gene | seed-corrected z-score |
|---|---|---|
| `UAGUGUAUCAGGAUUCUGC` | UBQLN1 | 0.8926 |
| `UCUGUUGACAUGGGCAGGC` | ADARB2-AS1 | 0.5547 |
| `UUCGAUUAACCGCAAGUCC` | CNPY3 | 0.206 |
| `UAAGAUACCACUUCUCAGC` | LZTFL1 | 1.122 |
| `UCUUUUAGACUAGAGAUUG` | PDLIM5 | 0.4294 |
| `UAAUCAUCCAAGUUCAGGG` | PSMF1 | 0.6408 |
| `AAUGAACUCUGUGCGGUCG` | CCDC134 | 0.01847 |
| `UGAUUUACAAGUUUGUAUU` | ZIC4 | 0.3607 |
| `AAACGAGUGAAUUACGUCA` | RNASET2 | -0.1536 |
| `UUCUCUAUCUCACAGCUUC` | LCN8 | 0.2947 |
| `UUCAUGUUGAGCGAUAAGG` | STK38 | -0.192 |
| `AUGGGUUUCAGGGACCAGC` | CKS1BP6 | 0.4013 |
| `UCUCUUCUCACAUAAAGCC` | CTAGE1 | 0.2051 |
| `UUAGAAUUCAGGACGGUCG` | ADGRB1 | 0.4999 |
| `UGUUCUUUAGGGAAGAGGG` | C1orf131 | -0.6249 |
| `AAUGAGAUAAAGCACCGGC` | GPR87 | -0.01937 |
| `UGCUGUAAGAUCGUCUCCG` | C6orf118 | 0.1699 |
| `UGAAGACGAAGAUCUGGUG` | TMEM259 | -0.291 |
| `AAAGUUGAUAGAGGUGAGG` | CELF2-AS2 | 0.9417 |
| `UUAGCAUUCCCGUUAGCAG` | LOC441454 | -1.18 |
| `UGAGCUUCCGGGUAAAAGG` | ABCA7 | -0.2058 |
| `UCAGCUGAGAAUUUGAGCC` | ATF6 | 0.6922 |
| `UCUUGAUCCAUUUGGUGUA` | PRSS45 | 0.4268 |
| `UCUUGGGUUAGGAAGCUGG` | ACY3 | -0.9404 |
| `UAGCCUUUCUCUUUUCUCC` | LINC01235 | -0.6272 |
| `UUUAAGUCCAUAUACCUAG` | MAPK6 | 0.9676 |
| `UUGUUAAUGGCCUUCUUGG` | HIST1H2BM | 0.8586 |
| `UUUCGAUCAGGGCAAAUAC` | PPIP5K1 | 0.8384 |
| `UGAUAUUGAACAUCCGUGG` | RASA1 | 1.76 |
| `AGACAGGCACAUAACAUCU` | KRTAP5-2 | -0.08181 |
| `UUGGUAGUGAGGUUCUUCC` | FAM120C | -0.8766 |
| `UCCUCUCCUAUUAAGUUAC` | REP15 | 0.4665 |
| `AAUAUCUUGAUAUCGAUCC` | AVEN | -0.3121 |
| `AACGAUAUUAGCUUUCGGG` | UBA2 | -0.9382 |
| `UCAGGUAGUAGAUCUGUCC` | TMED2 | -0.1118 |
| `AAACAUACAUCUGAAGUAC` | DPY19L2P2 | -1.219 |
| `UCGCCUGUCAACUUCAUCG` | GIT2 | -0.532 |
| `AUAAUCUUCAUCGAAAGGC` | CNTN4 | -0.7676 |
| `UCUCAUUCCACAGCGUACC` | STK16 | -0.04034 |
| `UUCAGCAACAUUCCCAUGG` | HPX | -0.3384 |
| `AGUGACAUCCGUGAAACCC` | SMOX | 0.8709 |
| `UAGCCGAUUAGCACAGCUG` | COL15A1 | -0.3716 |
| `UGAAUUCUGAACACGGUCC` | RWDD3 | 0.8363 |
| `UCUGUGAUGCCAUCACUGC` | LOC389895 | -0.1195 |
| `UCAGGUACCGGUUGAGUUG` | MRPS18A | -0.6626 |
| `ACUGUUUUCAGGGAGUUUC` | WIPI1 | -0.003206 |
| `UACUUGCACACUGUUGGUC` | CCDC96 | 0.3131 |
| `UGAGGUACACGAUGGAAUG` | FKBP4 | -0.2613 |
| `UCUGGGUGCAUGUUGAGGU` | SMPD2 | -0.7803 |
| `UUUGAUGAUCCUUACAUUC` | FTSJ2 | -1.584 |
| `AAAGAUAACAUAGUAUUGU` | BTG2 | 0.4091 |

4 of the entries, repeated:

- UAGCCUUUCUCUUUUCUCC against LINC01235 : seed-corrected z-score -0.6272
- UCUUGAUCCAUUUGGUGUA against PRSS45 : seed-corrected z-score 0.4268
- UCCUCUCCUAUUAAGUUAC against REP15 : seed-corrected z-score 0.4665
- UUAGAAUUCAGGACGGUCG against ADGRB1 : seed-corrected z-score 0.4999